Data on one molecule can be found in publication PMC9997211.

No constants are given. Whether binding was seen depends on the method and setting. Binding seen in cells or lysates may run through a third protein. Here binding means that the protein was enriched with, or labelled near, the bait; the list need not be complete.

For this experiment, the target named is T1, ZEB1 (bait of the mass spectrometric analysis of ZEB1-interactive proteins) (UniProt P37275).
T1 sequence: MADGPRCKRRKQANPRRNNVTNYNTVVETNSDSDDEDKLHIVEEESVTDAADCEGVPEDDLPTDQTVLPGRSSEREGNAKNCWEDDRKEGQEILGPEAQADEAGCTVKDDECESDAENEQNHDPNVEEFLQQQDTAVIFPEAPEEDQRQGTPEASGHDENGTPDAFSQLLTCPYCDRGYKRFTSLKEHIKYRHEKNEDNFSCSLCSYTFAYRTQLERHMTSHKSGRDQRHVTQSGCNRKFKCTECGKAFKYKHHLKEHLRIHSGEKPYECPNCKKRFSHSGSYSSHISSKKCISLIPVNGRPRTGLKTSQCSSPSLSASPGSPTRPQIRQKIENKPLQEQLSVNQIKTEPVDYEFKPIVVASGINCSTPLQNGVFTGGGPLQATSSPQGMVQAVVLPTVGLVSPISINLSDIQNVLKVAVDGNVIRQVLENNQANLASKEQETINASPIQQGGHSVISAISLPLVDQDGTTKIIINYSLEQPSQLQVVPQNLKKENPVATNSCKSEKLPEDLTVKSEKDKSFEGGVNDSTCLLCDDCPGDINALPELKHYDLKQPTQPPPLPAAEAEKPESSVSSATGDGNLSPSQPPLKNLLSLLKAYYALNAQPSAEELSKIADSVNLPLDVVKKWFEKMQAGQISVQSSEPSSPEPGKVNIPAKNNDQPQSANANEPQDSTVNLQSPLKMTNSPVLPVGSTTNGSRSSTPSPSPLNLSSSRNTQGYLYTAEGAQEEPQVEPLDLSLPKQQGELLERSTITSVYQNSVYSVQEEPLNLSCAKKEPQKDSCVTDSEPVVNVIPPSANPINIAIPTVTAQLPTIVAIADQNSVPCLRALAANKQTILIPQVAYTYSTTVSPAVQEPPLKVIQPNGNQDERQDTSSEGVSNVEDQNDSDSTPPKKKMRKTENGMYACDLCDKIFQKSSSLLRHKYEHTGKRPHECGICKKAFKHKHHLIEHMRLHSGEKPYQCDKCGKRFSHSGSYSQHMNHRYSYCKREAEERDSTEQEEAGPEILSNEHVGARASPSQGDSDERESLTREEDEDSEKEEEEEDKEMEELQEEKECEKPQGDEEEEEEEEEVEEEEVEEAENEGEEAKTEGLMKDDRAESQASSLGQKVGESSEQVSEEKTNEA
Put plainly: affinity purification with mass spectrometry; mass spectrometric analysis of ZEB1-interactive proteins whose interactions are regulated by the binding of Zn2+ to ZEB1; details only in Supplementary Figure 2A.

B1: ZEB2 (protein, UniProt O60315 1-1214)
chain: MKQPIMADGPRCKRRKQANPRRKNVVNYDNVVDTGSETDEEDKLHIAEDDGIANPLDQETSPASVPNHESSPHVSQALLPREEEEDEIREGGVEHPWHNNEILQASVDGPEEMKEDYDTMGPEATIQTAINNGTVKNANCTSDFEEYFAKRKLEERDGHAVSIEEYLQRSDTAIIYPEAPEELSRLGTPEANGQEENDLPPGTPDAFAQLLTCPYCDRGYKRLTSLKEHIKYRHEKNEENFSCPLCSYTFAYRTQLERHMVTHKPGTDQHQMLTQGAGNRKFKCTECGKAFKYKHHLKEHLRIHSGEKPYECPNCKKRFSHSGSYSSHISSKKCIGLISVNGRMRNNIKTGSSPNSVSSSPTNSAITQLRNKLENGKPLSMSEQTGLLKIKTEPLDFNDYKVLMATHGFSGTSPFMNGGLGATSPLGVHPSAQSPMQHLGVGMEAPLLGFPTMNSNLSEVQKVLQIVDNTVSRQKMDCKAEEISKLKGYHMKDPCSQPEEQGVTSPNIPPVGLPVVSHNGATKSIIDYTLEKVNEAKACLQSLTTDSRRQISNIKKEKLRTLIDLVTDDKMIENHNISTPFSCQFCKESFPGPIPLHQHERYLCKMNEEIKAVLQPHENIVPNKAGVFVDNKALLLSSVLSEKGMTSPINPYKDHMSVLKAYYAMNMEPNSDELLKISIAVGLPQEFVKEWFEQRKVYQYSNSRSPSLERSSKPLAPNSNPPTKDSLLPRSPVKPMDSITSPSIAELHNSVTNCDPPLRLTKPSHFTNIKPVEKLDHSRSNTPSPLNLSSTSSKNSHSSSYTPNSFSSEELQAEPLDLSLPKQMKEPKSIIATKNKTKASSISLDHNSVSSSSENSDEPLNLTFIKKEFSNSNNLDNKSTNPVFSMNPFSAKPLYTALPPQSAFPPATFMPPVQTSIPGLRPYPGLDQMSFLPHMAYTYPTGAATFADMQQRRKYQRKQGFQGELLDGAQDYMSGLDDMTDSDSCLSRKKIKKTESGMYACDLCDKTFQKSSSLLRHKYEHTGKRPHQCQICKKAFKHKHHLIEHSRLHSGEKPYQCDKCGKRFSHSGSYSQHMNHRYSYCKREAEEREAAEREAREKGHLEPTELLMNRAYLQSITPQGYSDSEERESMPRDGESEKEHEKEGEDGYGKLGRQDGDEEFEEEEEESENKSMDTDPETIRDEEETGDHSMDDSSEDGKMETKSDHEEDNMEDGM
Turning to B1, the binding result is reported as “binds”.
